# Measurements from the supplement of paper PMC8728848.
# Some of the results follow.
# B1: R2-fiber (Pseudomonas aeruginosa), Q9S576 (protein)
# chain: HHHHHHKVAKDLVVSLAYQVRTEDGVLVDESPVSAPLDYLHGHGSLISGLETALEGHEVGDKFDVAVGANDAYGQYDENLVQRVPKDVFMGVDELQVGMRFLAETDQGPVPVEITAVEDDHVVVDGNHMLAGQNLKFNVEVVAIREATEEELAHGHVHGAHDHHHDHDHDGCCGGHGHDHGHEHGGEGCCGGKGNGGCGCHENLYFQGVTAGMALAATDIPGLDASKLVSGVLAEQRLPVFARGLATAVSNSSDPNTATVPLMLTNHANGPVAGRYFYIQSMFYPDQNGNASQIATSYNATSEMYVRVSYAANPSIREWLPWQRCDIGGSFTKEADGELPGGVNLDSMVTSGWWSQSFTAQAASGANYPIVRAGLLHVYAASSNFIYQTYQAYDGESFYFRCRHSNTWFPWRRMWHGGDFNPSDYLLKSGFYWNALPGKPATFPPSAHNHDVGQLTSGILPLARGGVGSNTAAGARSTIGAGVPATASLGASGWWRDNDTGLIRQWGQVTCPADADASITFPIPFPTLCLGGYANQTSAFHPGTDASTGFRGATTTTAVIRNGYFAQAVLSWEAFGR
# What was measured:
# Assay in all cases: glycan array binding signal (z-score within array); higher = stronger binding
# Settings in all cases: glycan notation: IUPAC condensed, linker removed
# [1] = target: Fuc(a1-2)[Gal(a1-3)]Gal(b1-4)GlcNAc(b1-2)Man(a1-3)[Fuc(a1-2)[Gal(a1-3)]Gal(b1-4)GlcNAc(b1-2)Man(a1-6)]Man(b1-4)GlcNAc(b1-4)GlcNAc
# Procedure, shortened: (§1)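 Negative Z-scores can be read as non-binding. The Z-score is calculated within each array and then averaged across arrays of one protein sequence at different concentrations or buffers and across linkers. Arrays, 3228 in all, were curated from the Consortium for Functional Glycomics database and kept only where the protein sequence was available.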
# [2] = target: Fuc(a1-2)[Gal(a1-3)]Gal(b1-4)GlcNAc(b1-2)Man(a1-3)[Fuc(a1-2)[Gal(a1-3)]Gal(b1-4)GlcNAc(b1-2)Man(a1-6)]Man(b1-4)GlcNAc(b1-4)[Fuc(a1-6)]GlcNAc
# Procedure, shortened: as §1
# [3] = target: Fuc(a1-2)[Gal(a1-3)]Gal(b1-4)GlcNAc(b1-3)GalNAc
# Procedure, shortened: as §1
# [4] = target: Fuc(a1-2)[Gal(a1-3)]Gal(b1-4)GlcNAc(b1-3)[Fuc(a1-2)[Gal(a1-3)]Gal(b1-4)GlcNAc(b1-6)]GalNAc
# Procedure, shortened: as §1
# [5] = target: Fuc(a1-2)[Gal(a1-3)]Gal(b1-4)GlcNAc(b1-6)GalNAc
# Procedure, shortened: as §1
# [6] = target: Fuc(a1-2)[Gal(a1-3)]Gal(b1-4)[Fuc(a1-3)]Glc
# Procedure, shortened: as §1
# [7] = target: Fuc(a1-2)[Gal(a1-3)]Gal(b1-4)[Fuc(a1-3)]GlcNAc
# Procedure, shortened: as §1
# [8] = target: Fuc(a1-2)[Gal(a1-3)]Gal(b1-4)[Fuc(a1-3)]GlcNAc(b1-3)GalNAc
# Procedure, shortened: as §1
# [9] = target: Fuc(a1-2)[Gal(a1-4)]Gal(b1-4)GlcNAc
# Procedure, shortened: as §1
# [10] = target: Fuc(a1-2)[GalNAc(a1-3)]Gal
# Procedure, shortened: as §1
# [11] = target: Fuc(a1-2)[GalNAc(a1-3)]Gal(b1-3)GalNAc(a1-3)[Fuc(a1-2)]Gal(b1-4)GlcNAc
# Procedure, shortened: as §1
# [12] = target: Fuc(a1-2)[GalNAc(a1-3)]Gal(b1-3)GalNAc(b1-3)Gal(a1-4)Gal(b1-4)Glc
# Procedure, shortened: as §1
# [13] = target: Fuc(a1-2)[GalNAc(a1-3)]Gal(b1-3)GlcNAc
# Procedure, shortened: as §1
# [14] = target: Fuc(a1-2)[GalNAc(a1-3)]Gal(b1-3)GlcNAc(b1-2)Man(a1-3)[Fuc(a1-2)[GalNAc(a1-3)]Gal(b1-3)GlcNAc(b1-2)Man(a1-6)]Man(b1-4)GlcNAc(b1-4)GlcNAc
# Procedure, shortened: as §1
# [15] = target: Fuc(a1-2)[GalNAc(a1-3)]Gal(b1-3)GlcNAc(b1-2)Man(a1-3)[Fuc(a1-2)[GalNAc(a1-3)]Gal(b1-3)GlcNAc(b1-2)Man(a1-6)]Man(b1-4)GlcNAc(b1-4)[Fuc(a1-6)]GlcNAc
# Procedure, shortened: as §1
# [16] = target: Fuc(a1-2)[GalNAc(a1-3)]Gal(b1-3)GlcNAc(b1-3)GalNAc
# Procedure, shortened: as §1
# [17] = target: Fuc(a1-2)[GalNAc(a1-3)]Gal(b1-3)GlcNAc(b1-6)GalNAc
# Procedure, shortened: as §1
# [18] = target: Fuc(a1-2)[GalNAc(a1-3)]Gal(b1-4)Glc
# Procedure, shortened: as §1
# [19] = target: Fuc(a1-2)[GalNAc(a1-3)]Gal(b1-4)GlcNAc
# Procedure, shortened: as §1
# [20] = target: Fuc(a1-2)[GalNAc(a1-3)]Gal(b1-4)GlcNAc(b1-2)Man
# Procedure, shortened: as §1
# [21] = target: Fuc(a1-2)[GalNAc(a1-3)]Gal(b1-4)GlcNAc(b1-2)Man(a1-3)[Fuc(a1-2)[GalNAc(a1-3)]Gal(b1-4)GlcNAc(b1-2)Man(a1-6)]Man(b1-4)GlcNAc(b1-4)GlcNAc
# Procedure, shortened: as §1
# [22] = target: Fuc(a1-2)[GalNAc(a1-3)]Gal(b1-4)GlcNAc(b1-2)Man(a1-3)[Fuc(a1-2)[GalNAc(a1-3)]Gal(b1-4)GlcNAc(b1-2)Man(a1-6)]Man(b1-4)GlcNAc(b1-4)[Fuc(a1-6)]GlcNAc
# Procedure, shortened: as §1
# [23] = target: Fuc(a1-2)[GalNAc(a1-3)]Gal(b1-4)GlcNAc(b1-3)Gal(b1-4)GlcNAc
# Procedure, shortened: as §1
# [24] = target: Fuc(a1-2)[GalNAc(a1-3)]Gal(b1-4)GlcNAc(b1-3)Gal(b1-4)GlcNAc(b1-3)Gal(b1-4)GlcNAc
# Procedure, shortened: as §1
# [25] = target: Fuc(a1-2)[GalNAc(a1-3)]Gal(b1-4)GlcNAc(b1-3)GalNAc
# Procedure, shortened: as §1
# [26] = target: Fuc(a1-2)[GalNAc(a1-3)]Gal(b1-4)GlcNAc(b1-3)[Fuc(a1-2)[GalNAc(a1-3)]Gal(b1-4)GlcNAc(b1-6)]GalNAc
# Procedure, shortened: as §1
# [27] = target: Fuc(a1-2)[GalNAc(a1-3)]Gal(b1-4)GlcNAc(b1-6)GalNAc
# Procedure, shortened: as §1
# [28] = target: Fuc(a1-2)[GalNAc(a1-3)]Gal(b1-4)[Fuc(a1-3)]GlcNAc
# Procedure, shortened: as §1
# [29] = target: Fuc(a1-2)[GalNAc(a1-3)]Gal(b1-4)[Fuc(a1-3)]GlcNAc(b1-3)GalNAc
# Procedure, shortened: as §1
# [30] = target: Fuc(a1-2)[GalNAc(a1-4)]Gal(b1-4)GlcNAc
# Procedure, shortened: as §1
binder,measurement,setting,value
B1,glycan array binding signal (z-score),[1],0.927
same,glycan array binding signal (z-score),[2],-1.12
same,glycan array binding signal (z-score),[3],-0.641
same,glycan array binding signal (z-score),[4],2.68
same,glycan array binding signal (z-score),[5],1.5
same,glycan array binding signal (z-score),[6],-0.426
same,glycan array binding signal (z-score),[7],0.442
same,glycan array binding signal (z-score),[8],0.175
same,glycan array binding signal (z-score),[9],-0.322
same,glycan array binding signal (z-score),[10],-0.494
same,glycan array binding signal (z-score),[11],-0.408
same,glycan array binding signal (z-score),[12],-0.479
same,glycan array binding signal (z-score),[13],-0.139
same,glycan array binding signal (z-score),[14],0.098
same,glycan array binding signal (z-score),[15],-0.288
same,glycan array binding signal (z-score),[16],-0.17
same,glycan array binding signal (z-score),[17],0.153
same,glycan array binding signal (z-score),[18],-0.903
same,glycan array binding signal (z-score),[19],-0.075
same,glycan array binding signal (z-score),[20],-0.942
same,glycan array binding signal (z-score),[21],-0.257
same,glycan array binding signal (z-score),[22],-0.483
same,glycan array binding signal (z-score),[23],0.935
same,glycan array binding signal (z-score),[24],0.713
same,glycan array binding signal (z-score),[25],-0.415
same,glycan array binding signal (z-score),[26],-0.341
same,glycan array binding signal (z-score),[27],-0.477
same,glycan array binding signal (z-score),[28],-0.636
same,glycan array binding signal (z-score),[29],3.46
same,glycan array binding signal (z-score),[30],-0.49

# Two entries picked at random from the list so far:
binder,measurement,setting,value
B1,glycan array binding signal (z-score),[6],-0.426
same,glycan array binding signal (z-score),[18],-0.903
